{"source": "the supplement of paper PMC10849652", "note": "Some of the results follow.", "data": [{"compound": "CC[C@@H]1C(=O)N(C)c2cnc(Nc3ccc(C(=O)NC4CCN(C)CC4)cc3OC)nc2N1C1CCCC1", "test": "log2 fold change, soluble protein after heating vs DMSO (PISA); higher = thermal stabilisation; K562 cells, 10 uM, 30 min; active = over 0.2 and 3.5 SD of the protein, either way, in both replicates (recomputed)", "method_in_brief": "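K562 cells at 2×10^6 cells/mL were given 10 μM compound for 30 min. Aliquots then went through 3 min of heating across 48°C-58°C, were pooled, and were extracted in PBS with 0.5% NP-40 at 4°C, and the supernatant after 21,000xg for 90 min was quantified by TMTpro 16plex LC-MS/MS with channel sums equalised. Thermal stability relative to control samples, from duplicates, is given as log2 fold change.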", "values": [{"target": "CISD3 (UniProt P0C7P0)", "log2 fold change": "inactive: -0.016"}, {"target": "CLTA isoform 2 (UniProt P09496)", "log2 fold change": "inactive: 0.148"}, {"target": "CMSS1 (UniProt Q9BQ75)", "log2 fold change": "inactive: 0.158"}, {"target": "CNOT8 (UniProt Q9UFF9)", "log2 fold change": "inactive: -0.055"}, {"target": "COA3 (UniProt Q9Y2R0)", "log2 fold change": "inactive: 0.031"}, {"target": "CKB (UniProt P12277)", "log2 fold change": "inactive: 0.002"}, {"target": "CNP (UniProt P09543)", "log2 fold change": "inactive: -0.046"}, {"target": "CNOT6L (UniProt Q96LI5)", "log2 fold change": "inactive: -0.244"}, {"target": "COL15A1 (UniProt P39059)", "log2 fold change": "inactive: 0.02"}, {"target": "CLCN7 (UniProt P51798)", "log2 fold change": "active: -0.338"}, {"target": "CLEC16A (UniProt Q2KHT3)", "log2 fold change": "inactive: 0.023"}, {"target": "CLTB (UniProt P09497)", "log2 fold change": "inactive: 0.099"}, {"target": "COA7 (UniProt Q96BR5)", "log2 fold change": "inactive: -0.012"}, {"target": "CLASP1 (UniProt Q7Z460)", "log2 fold change": "inactive: -0.13"}, {"target": "CNTN4 (UniProt Q8IWV2)", "log2 fold change": "inactive: -0.016"}, {"target": "CKAP5 (UniProt Q14008)", "log2 fold change": "inactive: -0.049"}, {"target": "CNOT10 isoform 6 (UniProt Q9H9A5)", "log2 fold change": "inactive: -0.012"}, {"target": "CLIC1 (UniProt O00299)", "log2 fold change": "inactive: -0.061"}, {"target": "CLNS1A (UniProt P54105)", "log2 fold change": "inactive: -0.077"}, {"target": "CMAS (UniProt Q8NFW8)", "log2 fold change": "inactive: 0.098"}, {"target": "CKMT1A (UniProt P12532)", "log2 fold change": "inactive: 0.038"}, {"target": "CLIP1 isoform 1 (UniProt P30622)", "log2 fold change": "inactive: 0.017"}, {"target": "CIAO2A (UniProt Q9H5X1)", "log2 fold change": "inactive: -0.062"}, {"target": "CNBP isoform 6 (UniProt P62633)", "log2 fold change": "inactive: 0.07"}, {"target": "CMPK1 (UniProt P30085)", "log2 fold change": "inactive: -0.032"}, {"target": "CLPP (UniProt Q16740)", "log2 fold change": "inactive: -0.03"}, {"target": "CLPTM1L (UniProt Q96KA5)", "log2 fold change": "inactive: -0.067"}, {"target": "CMC2 (UniProt Q9NRP2)", "log2 fold change": "inactive: -0.031"}, {"target": "CISD2 (UniProt Q8N5K1)", "log2 fold change": "inactive: 0.034"}, {"target": "CMTM6 (UniProt Q9NX76)", "log2 fold change": "inactive: -0.009"}, {"target": "CISD1 (UniProt Q9NZ45)", "log2 fold change": "inactive: 0.01"}, {"target": "CLPB isoform 2 (UniProt Q9H078)", "log2 fold change": "inactive: -0.084"}, {"target": "CNOT9 isoform 2 (UniProt Q92600)", "log2 fold change": "inactive: -0.028"}]}]}
